# Data taken from PubChem BioAssay AID1347075 (National Center for Advancing Translational Sciences (NCATS), 2019).
# The whole screen tested about 400,000 compounds, of which about 5,500 (1.4%) were called active. Inconclusive means that the source gave no clear call. Such entries were picked first, then a sample of the others. Calls come from the whole dose curve; as a rule, active = well fitted cell-killing curve with a large enough effect; inconclusive = small, poorly fitted or top-dose-only effect, or effect the other way; inactive = flat fitted curve, though single readings scatter. Potencies beside an inconclusive call are fits to weak or partial responses and may not hold up.
# Experiment: qHTS assay for MDR1-selective chemotherapeutics: Primary screen using the parental adenocarcinoma cell KB-3-1; note: nearly all actives have a fitted effect of over 60% in size
# Details: KB-3-1 viability, CellTiter-Glo ATP luminescence, 72 h; activity change, negative = cytotoxic: at 46.1 µM (top of the series)
# Procedure, shortened: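 Here the drug-naive KB-3-1 line serves as comparator for MDR sub-line selectivity; cells received compound titrations, 72 h at 37 °C, then CellTiter-Glo readout.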
# % is set by controls: 0 for no effect and ±100 for the full control effect; potency is the fitted concentration of half-maximal effect.
SMILES,Potency,"activity change, negative = cytotoxic"
COc1ccc(-c2nc(S(=O)(=O)c3ccccc3)c(N3CCCCC3)o2)cc1,"inconclusive: 23.1 µM [rising, single point]",–
Cc1ccc2nc(CSc3nnc(-c4ccco4)o3)cc(=O)n2c1,–,inactive: 17.5%
Cc1cccc(-n2ncc3c(N4CCCc5ccccc54)ncnc32)c1,"inconclusive: 16.4 µM [cytotoxic, single point]",–
C=CCn1cc(C(=O)NCc2ccco2)c(=O)c2cc(S(=O)(=O)N3CCCCCC3)ccc21,"inconclusive: 25.1 µM [cytotoxic, single point]",–
O=C(COC(=O)Cn1cnc2ccccc21)Nc1ccccc1C(F)(F)F,–,inactive: -6.73%
CC(C)C(NC(=O)c1ccc(Cl)c([N+](=O)[O-])c1)C(=O)NCc1ccccn1 (stereo not given),–,inactive: 3.41%
CCCN1C(=O)/C(=C/c2ccc(OCc3ccc(C(=O)O)cc3)c(OC)c2)NC1=S,"inconclusive: 13 µM [cytotoxic, partial curve, poor fit]",–
COc1ccc(C[C@H]2CN3C(=NC[C@H]3C)N2CCNC(=O)CCC2CCCCC2)cc1,"inconclusive: 29.1 µM [cytotoxic, single point]",–
COc1ccc(N2CCN(C(=O)c3cccn4c(=O)c5ccc(Cl)cc5nc34)CC2)cc1,–,inactive: 2.71%
CC(=O)c1sc(Nc2ccc(Oc3ccccc3)cc2)nc1C,–,inactive: 0.0453%
O=c1c2c3c(sc2nc(NCCO)n1CCc1ccccc1)CCCCC3,"inconclusive: 29.1 µM [cytotoxic, single point]",–
COc1ccc(NC(=O)N(C)C[C@H]2Oc3ncc(Br)cc3C(=O)N([C@H](C)CO)C[C@@H]2C)cc1,–,inactive: 15.3%
Cc1nnc(Nc2ccc3c(c2)OCO3)c2ccccc12,"inconclusive: 14.6 µM [rising, partial curve, poor fit]",–
O=C(NCC1CCCO1)C(c1cccs1)N(Cc1cccs1)C(=O)c1ccc(-c2ccccc2)[nH]1 (stereo not given),"inconclusive: 20.6 µM [cytotoxic, partial curve, poor fit]",–
CCCCCC(=O)N[C@@H](c1ccccc1)[C@@H](O)C(=O)O[C@H]1C[C@@]2(O)[C@@H](OC(=O)c3ccccc3)C3[C@](C)(C(=O)[C@H](OC(C)=O)C(=C1C)C2(C)C)[C@@H](O)C[C@H]1OC[C@@]31OC(C)=O (stereo not given in full),active: 0.206 µM,–
CCc1cccc(C)c1NC(=O)COCc1cc(-c2ccc3c(c2)OCO3)on1,"inconclusive: 23.1 µM [cytotoxic, partial curve, poor fit]",–
Cc1cc2ncc(-c3cccs3)nc2cc1C,"inconclusive: 23.1 µM [cytotoxic, partial curve]",–
CC(=O)c1c(O)c(C)c(O)c2c1OC1=CC(=O)/C(=C(/C)N)C(=O)C12C (stereo not given),"inconclusive: 29.1 µM [cytotoxic, partial curve, poor fit]",–
CC1CCCCN1C(=O)CSc1nc2ccccc2nc1Cc1ccc(Cl)cc1 (stereo not given),"inconclusive: 10.3 µM [cytotoxic, single point]",–
c1ccc(Cc2c(C3CCCCC3)nc3c4ccccc4ccn23)cc1,"inconclusive: 16.4 µM [cytotoxic, partial curve, poor fit]",–
CC(C)c1ccc(NCCC(=O)c2ccc(Br)cc2)cc1,–,inactive: 14.7%
CCC(C(=O)OCC(=O)c1ccc(OC)cc1OC)c1ccccc1 (stereo not given),"inconclusive: 1.03 µM [rising, partial curve, poor fit]",–
O=C(CN1C(=O)NC2(CCCCCC2)C1=O)Nc1ccc2c(c1)CCC2,"inconclusive: 16.4 µM [cytotoxic, partial curve]",–

SMILES,Potency,"activity change, negative = cytotoxic"
O=C(Cc1ccccc1)Nc1nnc(-c2cccc([N+](=O)[O-])c2)s1,"inconclusive: 29.1 µM [rising, single point]",–
CC(C)c1ccc(NC(=S)NCc2cccs2)cc1,–,inactive: -5.88%
Cc1ccc2nsnc2c1NC(=O)c1ccc([N+](=O)[O-])o1,active: 4.11 µM,–
Cc1ccc(C2(c3ccc(C)cc3)NC(=O)N(Cc3c(C)noc3C)C2=O)cc1,"inconclusive: 29.1 µM [cytotoxic, single point]",–
CC(NC(=O)N1CCN(c2ccccc2F)CC1)c1ccc(F)c(F)c1 (stereo not given),"inconclusive: 20.6 µM [rising, partial curve, poor fit]",–
O=C(COc1coc(CN2CCc3ccccc3C2)cc1=O)Nc1cccc([N+](=O)[O-])c1,–,inactive: -2.62%
CCOC(=O)C1=C(CN2CCN(c3cc(C)ccc3C)CC2)NC(=O)NC1c1ccccc1 (stereo not given),"inconclusive: 29.1 µM [cytotoxic, single point]",–
Nc1c(Cl)ncnc1NCc1ccccc1,"inconclusive: 16.4 µM [cytotoxic, single point]",–
COc1ccc(NS(=O)(=O)NC(=O)c2c[nH]c3ccccc23)cc1,–,inactive: 2.34%
CS(=O)(=O)c1ccc2nc(NC(=O)c3ccco3)sc2c1,"inconclusive: 29.1 µM [cytotoxic, single point]",–
CCCn1c(SCc2cc(=O)oc3ccc4ccccc4c23)n[nH]c1=O,–,inactive: 25.5%
C/C(CC(C)(C)c1ccccc1)=N\NS(=O)(=O)c1ccccc1,–,inactive: 0.378%
CCc1ccc2oc(C(=O)NCCc3ccc(OC)c(OC)c3)cc(=O)c2c1,active: 16.4 µM,–
CCOC(=O)C1(Cc2ccccc2C(F)(F)F)CCN(Cc2ccc(COC)o2)CC1,active: 18.4 µM,–
COc1cccc(CN2C(=O)C3(SCC(=O)N3c3cc(C)cc(C)c3)c3ccccc32)c1 (stereo not given),"inconclusive: 29.1 µM [cytotoxic, single point]",–
O=C(NC(=S)NC1CCCC1)c1ccccc1Br,–,inactive: -2.25%
COc1ccc(CNc2nc(C)c([N+](=O)[O-])c(C)c2C#N)cc1,–,inactive: -7.85%
CCOc1ccccc1NC(=O)CCNC(=O)c1ccco1,–,inactive: -8.43%
COc1ccc(-c2cc(C(=O)N3CCN(c4ccccc4)CC3)c3ccccc3n2)cc1,"inconclusive: 23.1 µM [cytotoxic, single point]",–
Cc1ccc(C(=O)COC(=O)c2c(C)cc(=O)oc2C)cc1[N+](=O)[O-],–,inactive: 3.09%
CC(=O)Nc1ccc(NC(=O)CSc2ccc([N+](=O)[O-])cn2)cc1,–,inactive: 2.99%
Cn1nc(NC(=O)C(F)(F)F)c2ncc(-c3ccc(Cl)cc3)nc21,"inconclusive: 20.6 µM [cytotoxic, single point]",–

# Exported as tab-separated lines: part of the list above.
SMILES	Potency	activity change, negative = cytotoxic
C/C(CC(C)(C)c1ccccc1)=N\NS(=O)(=O)c1ccccc1	–	inactive: 0.378%
COc1ccc(CNc2nc(C)c([N+](=O)[O-])c(C)c2C#N)cc1	–	inactive: -7.85%
